# Experiment: Fluorescence lifetime imaging (FLIM) of amyloid fibril formation in vitro
# Type: physicochemical
# Details: free dye
# Experimental: We first examined whether a Hilyte Fluor 488 (HF488) dye attached to the N termini of Aβ(1–40) and Aβ(1–42) could act as a reporter of amyloid formation by monitoring how the fluorescence intensity of the dye changes as fibril formation occurs in vitro for each of the two Aβ isoforms. The appearance of fibrillar species was identified by means of dot blot experiments using the conformation-specific antibody LOC ([Kayed et al., 2007]), and the HF488 fluorescence intensity was measured in parallel (Figure 1A; Figure S1 available online). […] This small difference, however, could result from the fact that LOC recognizes fibrillar oligomers as well as amyloid fibrils, whereas the fluorescence quenching is likely to be associated predominately with amyloid fibrils. […] The fluorescence lifetimes in each pixel of these images were obtained by fitting monoexponential decay functions to the observed time-resolved fluorescence decays, and the data and images are shown in Figures 1C and 1D.
# All in vitro experiments were performed at a peptide concentration of 5 μM in 50 mM sodium phosphate buffer at pH 7.4. Aggregation kinetics were monitored by steady-state fluorescence in a FLUOstar Optima microplate reader (BMG Labtech) and sealed black Costar half-area, 96-well plates (Corning Life Sciences). […]
substance,measurement,setting,value
Hilyte Fluor 488 acid [HF488 dye],"fluorescence lifetime of the unconjugated dye, pH 5.0","pH 5.0, mean ± SD",4.0 ± 0.1 ns
same,"fluorescence lifetime of the unconjugated dye, pH 7.4","pH 7.4, mean ± SD",4.0 ± 0.1 ns

# Reference: paper PMC4067742, “Direct Observations of Amyloid β Self-Assembly in Live Cells Provide Insights into Differences in the Kinetics of Aβ(1–40) and Aβ(1–42) Aggregation” (Chemistry & Biology, 2014)
